{
  "source": "patent US5071835A",
  "about": "“Ribonucleotide reductase inhibitors” (Bio-Mega Inc., priority 1989, dated 1991)",
  "molecular_target": "T1, human ribonucleotide reductase (hRR) (Homo sapiens, UniProt P23921)",
  "T1 construct": "Preparation of cell extract containing human ribonucleotide reductase (hRR); endogenous in cells; host or cells: HeLa cells (ATCC CCL 2.2); extract cleared with streptomycin sulphate, 50% ammonium sulphate cut, diafiltered",
  "T1 sequence (P23921 1-792)": "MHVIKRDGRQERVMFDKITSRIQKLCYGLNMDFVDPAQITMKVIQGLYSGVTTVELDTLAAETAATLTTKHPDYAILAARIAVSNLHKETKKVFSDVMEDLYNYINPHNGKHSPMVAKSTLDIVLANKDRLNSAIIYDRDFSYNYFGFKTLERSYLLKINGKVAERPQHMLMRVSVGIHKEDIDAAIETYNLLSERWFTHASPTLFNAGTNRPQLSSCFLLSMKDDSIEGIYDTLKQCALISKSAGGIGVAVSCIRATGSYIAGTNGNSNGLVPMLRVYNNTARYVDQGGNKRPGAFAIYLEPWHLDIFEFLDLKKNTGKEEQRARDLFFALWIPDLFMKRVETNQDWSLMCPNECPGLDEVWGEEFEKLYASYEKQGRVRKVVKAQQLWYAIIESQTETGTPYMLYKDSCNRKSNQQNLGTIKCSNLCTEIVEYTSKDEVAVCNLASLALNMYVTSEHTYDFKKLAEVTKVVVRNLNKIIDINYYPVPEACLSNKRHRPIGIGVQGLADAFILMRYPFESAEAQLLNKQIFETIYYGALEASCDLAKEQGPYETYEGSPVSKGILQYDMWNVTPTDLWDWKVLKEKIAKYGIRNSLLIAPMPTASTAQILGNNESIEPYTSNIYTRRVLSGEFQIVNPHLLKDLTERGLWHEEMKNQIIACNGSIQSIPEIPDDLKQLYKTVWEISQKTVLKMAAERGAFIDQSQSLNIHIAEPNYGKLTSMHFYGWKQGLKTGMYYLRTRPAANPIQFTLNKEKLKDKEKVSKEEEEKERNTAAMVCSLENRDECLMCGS",
  "experiment": "Inhibition of Human Ribonucleotide Reductase Assay",
  "format": "biochemical",
  "details": "inhibition of human RR assay; list after the table; unit μM; read-out: IC50 (shown in parenthesis)",
  "procedure": "Inhibition of Human Ribonucleotide Reductase Assay\n(a) Cell line: Hela cells (ATCC CCL 2.2), human epitheloid carcinoma, cervix.\n(b) Cell culture: Cells were incubated in a medium consisting of Iscove's Modified Dulbecco Medium, pH 7.2-7.4 (Gibco Canada Inc., Burlington, ON, Canada) supplemented with 10% by volume of fetal calf serum, heat inactivated (Gibco Canada Inc.), 1 millimolar (mM) of sodium pyruvate, 100 units/ml of penicillin G, 100 μg/ml of streptomycin and 2 mM of L-glutamine. The incubation was done in a 1 l spinner flask at 37° C. under a mixture of 5% CO2 in air. Cell-containing media (75% of culture volume) was withdrawn semicontinuously at 24-48 h intervals. […]\nThe activity of RR was quantitated by following the conversion of radiolabeled cytidine diphosphate to radiolabeled deoxycytidine diphosphate, i.e. (^14 C)CDP to (^14 C)dCDP. […]\nThe resulting free nucleosides, cytidine (C) and deoxycytidine (dC), in the supernatant were separated by thin layer chromatography on polyethyleneimine-cellulose plates pretreated with boric acid. […] Quantitation of radiolabel migrating as C and dC was carried out using radioanalytical imaging equipment (AMBIS Systems Inc., San Diego, CA, USA). substrate conversion was calculated as: [formula] […]\nThe conversion factor for the Hela assay was 0.108. Specific activity was expressed as units/mg of protein in the incubation mixture. […]",
  "note": "At least one structure is not confirmed: it was looked up by name or label, or the drawing left a doubt. Residues, ends and D or L forms follow the SMILES beside them. *: point of attachment. Bn = c1ccc(C*)cc1",
  "data": [
    {"smiles": "CC(=O)N[C@@H](Cc1ccccc1)C(=O)N[C@H](C(=O)N[C@@H](CC(C)C)C(=O)N[C@@H](CC(=O)O)C(=O)N[C@@H](C)C(=O)N[C@@H](CC(=O)O)C(=O)N[C@@H](Cc1ccccc1)C(=O)O)[C@@H](C)OCc1ccccc1", "note": "[AcPhe-Thr(OBzl)-Leu-Asp-Ala-Asp-Phe-OH] (Ac-FT(Bn)LDADF-OH)", "values": [
      {"measurement": "IC50", "result": 28, "unit": "µM"}
    ]}
  ]
}
